PubChem BioAssay AID493246 – Drosophila RNAi Screening Center – 2011

- Screen: 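Genes fly cells need to grow and stay alive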 (primary screen)
- Cells: Drosophila Kc and S2R+ cells
- Reagents: long dsRNA against Drosophila genes
- Read-out: 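Raw, unnormalised count of remaining cells in each well; per-plate z-scores of cell number underlie the calls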
- Scale: Kc cell number and S2R+ cell number: higher = more cells remaining
- Active means: 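Counted as a hit if cell number falls by a z-score of at least 3 within its plate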
In all, the deposit lists about 21,000 reagents; below is a random part of those with a known target gene and a result. In the full data, 429 (2%) got an active call. 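Values are raw and not normalised between plates; calls rest on per-plate z-scores that were not deposited.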 Unmarked entries are inactive. Reagents against one gene are numbered here. The record does not give: the amount of reagent, the time to read-out.

CG15498 → Kc cell number, rep 1: 1.47e6; Kc cell number, rep 2: 1.44e6; S2R+ cell number, rep 1: 1.11e6; S2R+ cell number, rep 2: 1.19e6
GM130 (Golgi matrix protein 130 kD) → Kc cell number, rep 1: 1.34e6; Kc cell number, rep 2: 1.43e6; S2R+ cell number, rep 1: 9.77e5; S2R+ cell number, rep 2: 1.10e6
CYTB (retired record) → Kc cell number, rep 1: 1.66e6; Kc cell number, rep 2: 1.62e6; S2R+ cell number, rep 1: 1.15e6; S2R+ cell number, rep 2: 1.27e6
CG12121 → Kc cell number, rep 1: 1.57e6; Kc cell number, rep 2: 1.42e6; S2R+ cell number, rep 1: 1.03e6; S2R+ cell number, rep 2: 1.12e6
CG33474 → Kc cell number, rep 1: 1.45e6; Kc cell number, rep 2: 1.38e6; S2R+ cell number, rep 1: 1.03e6; S2R+ cell number, rep 2: 1.15e6
Sgs5bis → Kc cell number, rep 1: 1.40e6; Kc cell number, rep 2: 1.64e6; S2R+ cell number, rep 1: 1.09e6; S2R+ cell number, rep 2: 9.94e5
MED31 (Mediator complex subunit 31) → Kc cell number, rep 1: 1.42e6; Kc cell number, rep 2: 1.55e6; S2R+ cell number, rep 1: 1.18e6; S2R+ cell number, rep 2: 1.34e6
AOX3 (Aldehyde oxidase 3) → Kc cell number, rep 1: 1.43e6; Kc cell number, rep 2: 1.71e6; S2R+ cell number, rep 1: 1.41e6; S2R+ cell number, rep 2: 1.64e6

Laid out differently: entries from further up
gene	reagent no.	Kc cell number, rep 1	Kc cell number, rep 2	S2R+ cell number, rep 1	S2R+ cell number, rep 2
CG15498	1	1.47e6	1.44e6	1.11e6	1.19e6
GM130 (Golgi matrix protein 130 kD)	1	1.34e6	1.43e6	9.77e5	1.10e6
CYTB (retired record)	1	1.66e6	1.62e6	1.15e6	1.27e6

The results go on:
ldd (lipid droplet defective) → Kc cell number, rep 1: 1.66e6; Kc cell number, rep 2: 1.68e6; S2R+ cell number, rep 1: 1.13e6; S2R+ cell number, rep 2: 1.33e6
Eglp2 (Entomoglyceroporin 2) → Kc cell number, rep 1: 1.33e6; Kc cell number, rep 2: 1.46e6; S2R+ cell number, rep 1: 1.09e6; S2R+ cell number, rep 2: 1.04e6
CG6073 → Kc cell number, rep 1: 1.64e6; Kc cell number, rep 2: 1.71e6; S2R+ cell number, rep 1: 1.13e6; S2R+ cell number, rep 2: 1.28e6
Tomosyn #1 → Kc cell number, rep 1: 4.75e5; S2R+ cell number, rep 1: 8.77e5
Tomosyn #2 → Kc cell number, rep 1: 1.55e6; Kc cell number, rep 2: 1.61e6; S2R+ cell number, rep 1: 1.02e6; S2R+ cell number, rep 2: 1.24e6
Tomosyn #3 → Kc cell number, rep 1: 5.91e5; S2R+ cell number, rep 1: 8.80e5
Tomosyn #4 → Kc cell number, rep 1: 1.51e6; Kc cell number, rep 2: 1.60e6; S2R+ cell number, rep 1: 1.00e6; S2R+ cell number, rep 2: 1.16e6
ADD1 (ADD domain-containing protein 1) → Kc cell number, rep 1: 1.32e6; Kc cell number, rep 2: 1.37e6; S2R+ cell number, rep 1: 1.10e6; S2R+ cell number, rep 2: 1.18e6
Mical (Molecule interacting with CasL) #1 → Kc cell number, rep 1: 1.61e6; Kc cell number, rep 2: 1.57e6; S2R+ cell number, rep 1: 1.25e6; S2R+ cell number, rep 2: 1.45e6
Mical (Molecule interacting with CasL) #2 → Kc cell number, rep 1: 1.65e6; Kc cell number, rep 2: 1.70e6; S2R+ cell number, rep 1: 1.20e6; S2R+ cell number, rep 2: 1.35e6
Mical (Molecule interacting with CasL) #3 → Kc cell number, rep 1: 1.69e6; Kc cell number, rep 2: 1.66e6; S2R+ cell number, rep 1: 1.23e6; S2R+ cell number, rep 2: 1.32e6
Mical (Molecule interacting with CasL) #4 → Kc cell number, rep 1: 1.70e6; Kc cell number, rep 2: 1.68e6; S2R+ cell number, rep 1: 1.23e6; S2R+ cell number, rep 2: 1.38e6
CG2157 → Kc cell number, rep 1: 1.57e6; Kc cell number, rep 2: 1.52e6; S2R+ cell number, rep 1: 1.03e6; S2R+ cell number, rep 2: 1.17e6
